Reference: paper PMC8888636
No constants are given. Whether binding was seen depends on the method and setting. In cells and extracts the contact can be indirect. Some entries that bind do so weakly or less than the wild type.

Amino acid sequences for entries named in this document (tags omitted).
UniProt P09382: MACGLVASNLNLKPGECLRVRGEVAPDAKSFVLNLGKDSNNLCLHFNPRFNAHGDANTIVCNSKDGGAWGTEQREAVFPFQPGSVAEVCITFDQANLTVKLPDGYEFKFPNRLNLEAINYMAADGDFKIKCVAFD
UniProt Q9HCE7: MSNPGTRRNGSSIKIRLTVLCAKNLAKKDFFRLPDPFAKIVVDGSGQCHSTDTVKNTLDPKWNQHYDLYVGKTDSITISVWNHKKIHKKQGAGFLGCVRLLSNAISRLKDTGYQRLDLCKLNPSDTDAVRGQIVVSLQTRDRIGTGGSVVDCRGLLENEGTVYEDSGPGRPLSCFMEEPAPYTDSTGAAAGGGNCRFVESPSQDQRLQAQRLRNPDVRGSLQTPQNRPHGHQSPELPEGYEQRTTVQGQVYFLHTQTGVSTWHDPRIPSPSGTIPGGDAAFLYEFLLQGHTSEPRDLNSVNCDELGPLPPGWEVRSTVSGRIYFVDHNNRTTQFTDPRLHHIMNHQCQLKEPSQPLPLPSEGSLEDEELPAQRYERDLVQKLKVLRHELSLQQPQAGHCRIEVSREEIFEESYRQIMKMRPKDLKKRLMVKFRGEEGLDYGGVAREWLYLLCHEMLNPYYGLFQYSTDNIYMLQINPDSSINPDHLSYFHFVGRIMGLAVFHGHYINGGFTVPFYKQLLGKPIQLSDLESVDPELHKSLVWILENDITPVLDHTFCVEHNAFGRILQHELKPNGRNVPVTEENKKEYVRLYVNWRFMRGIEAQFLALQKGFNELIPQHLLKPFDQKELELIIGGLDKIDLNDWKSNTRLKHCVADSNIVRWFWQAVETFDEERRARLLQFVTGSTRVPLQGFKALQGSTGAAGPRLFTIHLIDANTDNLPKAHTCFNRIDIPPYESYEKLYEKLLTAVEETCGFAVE

Target: Galectin-1 (human (endogenous in ESCC cells)) (UniProt P09382)
Test: co-IP; total proteins from ESCC cells (with or without ESCCAL-1 knockdown) incubated with primary antibody overnight at 4 °C, protein A/G magnetic beads, eluate analysed by western blot

binding: binds
Substance: SMAD-specific E3 ubiquitin protein ligase 1 (from UniProt Q9HCE7 1-757) (enzyme)
